Measured values: PMC12431657, “Discovery and mechanistic insights of dibenzoylmethane as a broad spectrum inhibitor of coronavirus” (PLOS Pathogens, 2025)
Read-outs that look alike come from different tables or passages of the source. In all, about 3,300 compounds went through this assay and about 60 (2%) showed an effect of 50% or more. This is one part of the list.

Test system: HCoV-OC43
Design: species or system RD; HTS, protection from HCoV-OC43 induced cell death, luminescent cell viability (CellCounting-Lite 2.0), inhibition rate
Settings: 24 h post infection, 1 h compound pre-incubation, 10 µM, inhibitor

CC(=O)OCC(=O)[C@@]1(O)CC[C@H]2[C@@H]3CCC4=CC(=O)CC[C@]4(C)[C@H]3[C@@H](O)C[C@@]21C [Hydrocortisone acetate]
OC43 Inhibition rate: 1.1%

CCc1ccc(O)cc1 [4-Ethylphenol]
OC43 Inhibition rate: 0.8%

O=C[C@H](O)[C@@H](O)[C@H](O)[C@H](O)C(=O)O [D-Glucuronic acid]
OC43 Inhibition rate: -0.5%

CN1c2ccccc2C(=O)N2CCc3c([nH]c4ccccc34)C21 (racemic) [(±)-Evodiamine]
OC43 Inhibition rate: -0.6%

CC(=O)OC/C=C/c1ccccc1 [Cinnamyl acetate]
OC43 Inhibition rate: -0.2%

O=C1Cc2cc(O)ccc2N1 [5-Hydroxyoxindole]
OC43 Inhibition rate: 0.2%

CCCCCCCCCCCCCCCC(=O)OC/C=C(C)/C=C/C=C(C)/C=C/C1=C(C)CCCC1(C)C [Retinyl palmitate]
OC43 Inhibition rate: 9.9%

COc1ccc(-c2cc(=O)c3c(O)c(OC)c(OC)cc3o2)cc1O [Eupatorin]
OC43 Inhibition rate: 6.5%

O=C(O)CCCCCCCC(=O)O [Azelaic acid]
OC43 Inhibition rate: -0.1%

C=C1CC[C@@H]2[C@](C)(CO)[C@H](O)CC[C@@]2(C)[C@@H]1CCC1=CCOC1=O [Deoxyandrographolide]
OC43 Inhibition rate (OC43 Inhibition rate, 24 h): 2.2%

CC(=O)OCC(=O)[C@@]1(O)CC[C@H]2[C@@H]3CCC4=CC(=O)C=C[C@]4(C)[C@@]3(Cl)[C@@H](Cl)C[C@@]21C [Dichlorisone acetate]
OC43 Inhibition rate: -0.2%

CCCCCCCCCCCCCCCCCCCCCCCCC [Pentacosane]
OC43 Inhibition rate: -0.4%

C[C@H]1O[C@@H](O[C@@H]2CC[C@@]3(C)[C@@H](CC[C@]4(C)[C@@H]3C=C[C@]35OC[C@@]6(CCC(C)(C)C[C@H]63)[C@@H](O)C[C@]54C)[C@@]2(C)CO)[C@H](O)[C@@H](O)[C@H]1O (stereo in doubt) [Prosaikogenin G]
OC43 Inhibition rate: -5.3%

OC[C@H]1O[C@@H](n2cnc3c(O)nc(O)nc32)[C@H](O)[C@@H]1O [Xanthosine]
OC43 Inhibition rate: 2.4%

COc1cc2c(c(OC)c1OC)C(=O)c1c(cc(C)c(O)c1OC)C2=O [Chrysoobtusin]
OC43 Inhibition rate: 0.7%

CCCCCCCCCCCCCCCCCCC(=O)O [Nonadecanoic acid]
OC43 Inhibition rate: -0.5%

Nc1nc2c(ncn2[C@@H]2O[C@H](COP(=O)(O)OP(=O)(O)OC3O[C@H](CO)[C@@H](O)[C@H](O)[C@@H]3O)[C@@H](O)[C@H]2O)c(=O)[nH]1 (stereo partly drawn) [GDP-D-mannose (disodium)]
OC43 Inhibition rate: 0.3%

N#C/C=C1/C=C[C@@H](O)[C@H](O)[C@H]1O[C@@H]1O[C@H](CO)[C@@H](O)[C@H](O)[C@H]1O [Lithospermoside]
OC43 Inhibition rate: -4.6%

COc1c(O[C@@H]2O[C@H](CO)[C@@H](O)[C@H](O)[C@H]2O)cc2oc(-c3ccc(O)cc3)cc(=O)c2c1O [Homoplantaginin]
OC43 Inhibition rate: 0.5%

CC1(C)CC[C@]2(C(=O)O)CC[C@]3(C)C(=CC[C@@H]4[C@@]5(C)C[C@@H](O)[C@H](O)C(C)(C)[C@@H]5CC[C@]43C)[C@@H]2C1 [Maslinic acid]
OC43 Inhibition rate: -2.3%

C[C@@H]1O[C@@H](OC[C@H]2O[C@@H](Oc3c(-c4ccc(O)c(O)c4)oc4cc(O)cc(O)c4c3=O)[C@H](O)[C@@H](O)[C@@H]2O)[C@H](O)[C@H](O)[C@H]1O [Rutin]
OC43 Inhibition rate (OC43 Inhibition rate, 24 h): -0.7%

COc1cc([C@@H]2c3cc4c(cc3[C@@H](O[C@@H]3O[C@@H]5CO[C@@H](C)O[C@H]5[C@H](O)[C@H]3O)[C@H]3COC(=O)[C@H]23)OCO4)cc(OC)c1O [Etoposide]
OC43 Inhibition rate: -10.6%

C[C@@]12C[C@H](c3ccoc3)O[C@@]13C[C@H](OC3=O)[C@H]1[C@H]2C[C@@H]2C[C@H]1C(=O)O2 [Diosbulbin B]
OC43 Inhibition rate: -0.9%

Oc1cc(O)c2c(c1)O[C@@H](c1ccc(O)c(O)c1)[C@H](O)C2 [(-)-Catechin]
OC43 Inhibition rate: 2.1%

C=C[C@H]1[C@H](O[C@@H]2O[C@H](CO)[C@@H](O)[C@H](O)[C@H]2O)OC=C(C(=O)OC)[C@H]1CC(=O)O [Secoxyloganin]
OC43 Inhibition rate: 0.3%

COc1cc(O)c2c(=O)cc(-c3ccc(OC)c(OC)c3)oc2c1 [7,3',4'-Tri-O-methylluteolin]
OC43 Inhibition rate: 0%

C/C(=C/C(=O)O)C(=O)O [Citraconic acid]
OC43 Inhibition rate: -1.1%

C=C(C)[C@H](CC=C(C)C)Cc1c(O)cc(OC)c2c1O[C@H](c1ccc(O)cc1O)[C@@H](O)C2=O [Kushenol I]
OC43 Inhibition rate: 41.5%

CC[C@@]1(O)C(=O)OCc2c1cc1n(c2=O)Cc2cc3c(N)cccc3nc2-1 [9-amino-CPT]
OC43 Inhibition rate: -9.5%

COC1=C(OC)C(=O)C(C/C=C(\C)CC/C=C(\C)CC/C=C(\C)CC/C=C(\C)CC/C=C(\C)CC/C=C(\C)CC/C=C(\C)CC/C=C(\C)CCC=C(C)C)=C(C)C1=O [Coenzyme Q9]
OC43 Inhibition rate: 0.1%

O=C(O)/C=C/c1ccc(O)cc1 [p-Coumaric acid]
OC43 Inhibition rate: -0.2%

NCC(=O)NCC(=O)O [Glycylglycine]
OC43 Inhibition rate: 1.4%

C/C=C/c1ccc(OC)cc1 [Anethole]
OC43 Inhibition rate (OC43 Inhibition rate, 24 h): 0.3%

O=c1cc(-c2ccc(O)cc2)oc2c([C@@H]3O[C@H](CO)[C@@H](O)[C@H](O)[C@H]3O)c(O)c([C@@H]3OC[C@H](O)[C@H](O)[C@H]3O)c(O)c12 [Isoschaftoside]
OC43 Inhibition rate: 7.2%

N[C@@H](Cc1ccccc1)C(=O)O [L-Phenylalanine]
OC43 Inhibition rate: -3.1%

CC(=O)O[C@]1(C(C)=O)CC[C@H]2[C@@H]3C[C@H](C)C4=CC(=O)CC[C@]4(C)[C@H]3CC[C@@]21C [Medroxyprogesterone acetate]
OC43 Inhibition rate: -0.2%

COc1c2c(cc3oc(CO[C@@H]4O[C@H](CO)[C@@H](O)[C@H](O)[C@H]4O)cc(=O)c13)O[C@H](C(C)(C)O)C2 [Prim-O-glucosylcimifugin]
OC43 Inhibition rate: -0.2%

O=C1CCC[C@@H]2[C@H]3CCCN4CCC[C@H](CN12)[C@@H]34 [Sophoridine]
OC43 Inhibition rate: 0.9%

Cc1cnc(C)cn1 [2,5-Dimethylpyrazine]
OC43 Inhibition rate: -0.8%
